Our source for the binding values is patent US7521047.

Numbering of substitutions follows the chain as printed. These are yes or no findings as the source states them, for the method shown. For some assays here: Binding can be weak; no strength is given.

The target of assay [1] is human-mouse chimeric molecule DR-IE (human; murine). As to the kind of experiment: ELISA (FIG. 1b). On the technique in general: In an ELISA, binding on a coated surface is turned into a signal by an enzyme label.
For assay [2] the target is unchanged. Briefly: ELISA, coated antigen.
The target in a further assay is transferrin. Briefly: ELISA, coated antigen.
In another assay the target is lysozyme. Briefly: ELISA, coated antigen.

B1: MS-GPC-1 Fab (Fab, V domains shown)
VH: QVQLKESGPALVKPTQTLTLTCTFSGFSLSTSGVGVGWIRQPPGKALEWLALIDWDDDKYYSTSLKTRLTISKDTSKNQVVLTMTNMDPVDTATYYCARQYGHRGGFDHWGQGTLVTVSS
VL: DIVLTQPPSVSGAPGQRVTISCSGSSSNIGSNYVSWYQQLPGTAPKLLIYDNNQRPSGVPDRFSGSKSGTSASLAITGLQSEDEADYYCQSYDFNESVFGGGTKLTVLG
Consider B1, for which the binding entry in assay [1] is on record as “binds”; in assay [2], “binds”; in the assay with transferrin it was “no binding”; in the assay with lysozyme, “no binding”.

B2: MS-GPC-10 Fab (Fab, V domains shown)
VH: B1 VH with Y101L, G102H, H103Y, H109L
VL: B1 VL with F94L, N95T, E96M, S97G
Take B2: the binding result was “binds” in assay [1], “binds” in assay [2], “no binding” with transferrin and “no binding” in the assay with lysozyme.
